Source: patent US20090099167A1, “Organic compounds” (Novartis Institutes for Biomedical Research, priority 2004, published 2009)
The structures given here were assigned with low confidence; some may be wrong.

The chains behind the UniProt entries cited, without tags or fusion partners. Residues count along the entry.
UniProt P35968, 20-1356 limits assumed: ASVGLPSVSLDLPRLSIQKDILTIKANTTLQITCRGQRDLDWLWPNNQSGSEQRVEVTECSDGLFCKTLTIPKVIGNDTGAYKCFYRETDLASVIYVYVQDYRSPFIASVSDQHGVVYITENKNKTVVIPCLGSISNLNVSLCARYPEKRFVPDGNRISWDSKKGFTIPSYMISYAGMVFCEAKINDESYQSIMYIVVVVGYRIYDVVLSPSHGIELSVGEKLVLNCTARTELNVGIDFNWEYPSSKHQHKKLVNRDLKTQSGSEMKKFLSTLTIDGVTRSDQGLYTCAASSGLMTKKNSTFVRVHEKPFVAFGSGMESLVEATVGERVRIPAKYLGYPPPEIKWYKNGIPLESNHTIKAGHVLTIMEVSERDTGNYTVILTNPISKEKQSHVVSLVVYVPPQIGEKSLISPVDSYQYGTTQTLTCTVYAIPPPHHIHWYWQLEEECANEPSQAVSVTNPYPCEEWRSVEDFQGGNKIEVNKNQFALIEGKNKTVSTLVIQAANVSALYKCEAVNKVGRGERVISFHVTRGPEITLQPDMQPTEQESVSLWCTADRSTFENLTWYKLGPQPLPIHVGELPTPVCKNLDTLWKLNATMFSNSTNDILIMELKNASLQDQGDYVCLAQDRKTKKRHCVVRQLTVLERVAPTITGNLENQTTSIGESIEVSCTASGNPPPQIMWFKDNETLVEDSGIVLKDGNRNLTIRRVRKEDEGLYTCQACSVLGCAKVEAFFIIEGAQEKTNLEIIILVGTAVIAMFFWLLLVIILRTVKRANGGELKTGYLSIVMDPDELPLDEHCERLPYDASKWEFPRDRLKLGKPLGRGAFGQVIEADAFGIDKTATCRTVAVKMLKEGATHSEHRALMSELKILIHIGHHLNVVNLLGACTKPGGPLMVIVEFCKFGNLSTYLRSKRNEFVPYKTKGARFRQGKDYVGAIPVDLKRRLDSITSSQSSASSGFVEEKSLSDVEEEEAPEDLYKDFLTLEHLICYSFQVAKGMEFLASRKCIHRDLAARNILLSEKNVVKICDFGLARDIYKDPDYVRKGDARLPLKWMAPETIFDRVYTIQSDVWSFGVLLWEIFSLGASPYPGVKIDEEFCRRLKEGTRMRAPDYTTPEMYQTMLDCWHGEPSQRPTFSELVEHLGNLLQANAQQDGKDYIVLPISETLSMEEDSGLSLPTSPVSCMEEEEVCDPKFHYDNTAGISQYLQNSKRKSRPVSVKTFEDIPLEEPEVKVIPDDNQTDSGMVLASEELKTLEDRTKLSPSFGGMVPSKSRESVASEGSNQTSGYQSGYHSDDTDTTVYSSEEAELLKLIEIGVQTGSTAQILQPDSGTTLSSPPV

Biological target: human VEGF-R2 receptor (KDR) (Homo sapiens, UniProt P35968)
Assay: VEGF-induced KDR autophosphorylation in transfected CHO cells, sandwich ELISA
Conditions: read-out: KDR, activity (IC50 for kinase inhibition); Table 4

Cc1nn2c(N)c(-c3cccc(O)c3)cnc2c1-c1ccc(N2CCN(C)CC2)cc1 [Example 61a, 3-{7-Amino-2-methyl-3-[4-(4-methyl-piperazin-1-yl)phenyl]-pyrazolo[1,5-a]pyrimidin-6-yl}-phenol]
IC50: < 10 µM
